{
  "source": "patent US20240122985A1",
  "about": "“ANTIBODIES, COMBINATIONS COMPRISING ANTIBODIES, BIOMARKERS, USES & METHODS” (KYMAB LIMITED, priority 2016, published 2024)",
  "key": {"CD3^+CD20^− T-cells": {"tested_on": "CD3^+CD20^− T-cells", "assay": "gene array and GSEA of sorted CD3^+CD20^− T-cells", "conditions": "versus No Rx cohorts at terminal analysis; FDR q<0.001"}, "[1]": {"tested_on": "Rhesus Macaque Graft versus Host Disease (GvHD) model", "conditions": "Sirolimus monotherapy, previously demonstrated (Furlan et al., 2015; Miller et al. 2010); cited from earlier work"}, "[2]": {"tested_on": "peripheral blood and tissue T-cells", "assay": "Flow cytometry of T-cell subsets after HCT (Tscm, TN, TCM, TEM, Ki-67, OX40, Treg, cytokines)", "format": "in vivo, Rhesus macaque", "description": "Longitudinal peripheral blood samples were collected before and after haematopoietic stem cell transplant and at necropsy for flow cytometric analysis of lymphocyte subsets. Lung, liver, colon spleen and lymph node (axillary and inguinal) tissues were collected at necropsy and dissociated or enzymatically digested as appropriate for subsequent analysis of lymphocyte infiltrates by flow cytometry. Samples were analysed by multicolour flow cytometry using a LSRFortessa cell analyser (BD Biosciences) using the following T lymphocyte marker probes: CD3 (APC-Cy7 label; clone SP34-2, BD Biosciences), CD4 (BV786 label; clone L200, BD Biosciences), CD8 (BUV395 label; clone RPA-T 8, BD Bioscences), CD28 (PE-Cy7 label; clone CD28.2, eBioscience), CD95 (BV605 label; clone DX2, Biolegend). Proliferating cell populations were identified using Ki-67 (FITC label, Dako). […]\nBlood was collected into tubes with Sodium EDTA, and then red blood cells were lysed with lysis buffer containing ammonium chloride. […] Data were analysed using FloJo. […]\nPeripheral blood mononuclear cells were isolated at different time points by Ficoll-Paque gradient and then were stained for cell surface markers (CD3, CD4, CD8) followed by fixation/permeabilization (using BD Cytofix/Cytoperm kit) and intracellular staining for Ki-67. Ki-67 expression in NHP peripheral blood CD4^+ (FIG. 8A) and CD8^+ (FIG. 8B) was measured. […]"}},
  "note": "For at least one compound, name, drawing or mass did not settle the structure.",
  "data": [
    {"smiles": "CO[C@H]1C[C@@H]2CC[C@@H](C)[C@@](O)(O2)C(=O)C(=O)N2CCCC[C@H]2C(=O)O[C@H]([C@H](C)C[C@@H]2CC[C@@H](O)[C@H](OC)C2)CC(=O)[C@H](C)/C=C(\\C)[C@@H](O)[C@@H](OC)C(=O)[C@H](C)C[C@H](C)/C=C/C=C/C=C/1C", "note": "[rapamycin, rapamycin (sirolimus)]", "values": [
      {"measurement": "mTOR-related gene sets (GSEA)", "setting": "CD3^+CD20^− T-cells", "result": "under-represented"},
      {"measurement": "MST", "setting": "[1]", "result": 14, "unit": "days"},
      {"measurement": "numbers of peripheral blood Treg cells", "setting": "[2]; after allogeneic HCT (FIG. 9)", "result": "rapidly declines"},
      {"measurement": "Treg to Tconv ratio", "setting": "[2]; peripheral blood after HCT (FIG. 11B)", "result": "protected against the significant drop"}
    ]}
  ]
}
